In article PMC4808009:
No constants are given. Whether binding was seen depends on the method and setting. In cells and extracts the contact can be indirect. Some binding calls cover weakened binding; strength is not graded here.

Amino acid sequences for entries named in this document (tags omitted). Residues count along the entry.
UniProt P21860, residues 20-1342: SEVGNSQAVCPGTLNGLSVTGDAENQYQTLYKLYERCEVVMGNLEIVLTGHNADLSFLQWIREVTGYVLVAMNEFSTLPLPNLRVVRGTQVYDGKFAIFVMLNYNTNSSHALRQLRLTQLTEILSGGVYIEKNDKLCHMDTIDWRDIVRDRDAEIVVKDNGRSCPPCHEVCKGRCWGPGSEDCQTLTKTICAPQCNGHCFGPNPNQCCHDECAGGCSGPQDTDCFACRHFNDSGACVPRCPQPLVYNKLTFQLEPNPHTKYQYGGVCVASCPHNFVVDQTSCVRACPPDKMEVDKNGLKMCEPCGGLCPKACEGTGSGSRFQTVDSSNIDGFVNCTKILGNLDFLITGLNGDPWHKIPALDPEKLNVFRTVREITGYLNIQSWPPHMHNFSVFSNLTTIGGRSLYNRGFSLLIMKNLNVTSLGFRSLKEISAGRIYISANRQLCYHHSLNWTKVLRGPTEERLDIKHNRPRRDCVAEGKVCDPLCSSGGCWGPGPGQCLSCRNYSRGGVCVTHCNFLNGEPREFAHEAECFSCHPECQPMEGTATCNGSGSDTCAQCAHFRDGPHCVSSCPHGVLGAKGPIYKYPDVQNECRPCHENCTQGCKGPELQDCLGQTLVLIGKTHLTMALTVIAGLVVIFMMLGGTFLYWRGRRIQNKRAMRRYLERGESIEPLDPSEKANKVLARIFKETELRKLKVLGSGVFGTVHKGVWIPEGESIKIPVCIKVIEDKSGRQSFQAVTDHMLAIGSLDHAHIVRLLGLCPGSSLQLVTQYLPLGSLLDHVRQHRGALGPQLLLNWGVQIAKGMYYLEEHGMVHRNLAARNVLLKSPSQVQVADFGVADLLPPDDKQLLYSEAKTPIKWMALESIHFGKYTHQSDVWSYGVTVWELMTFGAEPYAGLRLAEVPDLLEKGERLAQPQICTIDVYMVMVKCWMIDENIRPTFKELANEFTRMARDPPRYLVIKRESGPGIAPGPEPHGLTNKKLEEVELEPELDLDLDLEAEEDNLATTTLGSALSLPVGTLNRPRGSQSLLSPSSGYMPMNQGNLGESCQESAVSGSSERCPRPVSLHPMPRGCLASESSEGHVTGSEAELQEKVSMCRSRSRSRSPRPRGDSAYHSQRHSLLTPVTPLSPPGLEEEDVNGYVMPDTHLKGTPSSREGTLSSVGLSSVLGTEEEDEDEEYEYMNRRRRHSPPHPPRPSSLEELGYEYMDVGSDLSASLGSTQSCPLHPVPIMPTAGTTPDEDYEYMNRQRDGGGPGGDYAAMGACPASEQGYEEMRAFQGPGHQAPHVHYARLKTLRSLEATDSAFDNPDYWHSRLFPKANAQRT
UniProt P07949, residues 29-1114: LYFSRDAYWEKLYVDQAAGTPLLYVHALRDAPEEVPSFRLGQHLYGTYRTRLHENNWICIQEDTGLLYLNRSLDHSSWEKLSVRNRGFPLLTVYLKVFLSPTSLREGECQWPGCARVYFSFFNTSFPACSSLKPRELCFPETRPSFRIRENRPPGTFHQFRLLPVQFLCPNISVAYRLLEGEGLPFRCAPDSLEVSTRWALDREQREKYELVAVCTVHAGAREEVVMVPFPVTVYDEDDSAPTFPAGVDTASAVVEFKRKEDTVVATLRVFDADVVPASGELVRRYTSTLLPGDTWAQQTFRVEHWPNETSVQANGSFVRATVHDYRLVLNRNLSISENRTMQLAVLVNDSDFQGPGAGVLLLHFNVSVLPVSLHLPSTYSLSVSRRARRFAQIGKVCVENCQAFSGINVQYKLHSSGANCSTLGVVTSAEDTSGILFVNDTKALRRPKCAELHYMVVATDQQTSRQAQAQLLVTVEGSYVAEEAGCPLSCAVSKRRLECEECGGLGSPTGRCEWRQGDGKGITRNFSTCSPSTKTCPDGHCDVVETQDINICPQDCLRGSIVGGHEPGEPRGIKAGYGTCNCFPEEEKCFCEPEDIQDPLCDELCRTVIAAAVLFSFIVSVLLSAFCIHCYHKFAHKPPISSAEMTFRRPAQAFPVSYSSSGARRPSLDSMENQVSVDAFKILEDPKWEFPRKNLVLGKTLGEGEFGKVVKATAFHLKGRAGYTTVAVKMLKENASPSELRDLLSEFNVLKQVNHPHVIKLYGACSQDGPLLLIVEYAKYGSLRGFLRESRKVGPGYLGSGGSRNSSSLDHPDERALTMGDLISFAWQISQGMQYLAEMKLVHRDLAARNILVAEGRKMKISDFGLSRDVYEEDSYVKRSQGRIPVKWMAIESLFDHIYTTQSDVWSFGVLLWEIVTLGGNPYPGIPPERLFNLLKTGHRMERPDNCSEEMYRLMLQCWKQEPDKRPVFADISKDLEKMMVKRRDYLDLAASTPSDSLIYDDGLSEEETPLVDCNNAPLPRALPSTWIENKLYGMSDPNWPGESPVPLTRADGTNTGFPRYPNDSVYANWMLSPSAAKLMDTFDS

Experiments:
[1] = molecular target: ERBB3 receptor tyrosine kinase (human (endogenous in MLS cell lines)) (UniProt P21860); assay: proximity ligation; DuoLink II kit in MLS cells; rabbit and goat specific probes with ERBB3 antibody (G-4) and RET goat antibody (C-19); confocal microscopy; signals in cytoplasm and nuclei
ERBB3-EGFP = ERBB3-EGFP (UniProt P21860); assay: co-IP; GFP-TRAP beads on lysate of ERBB3-EGFP transfected MLS cell line 1765-92, 24 hours after transfection; lysis buffer 25 mM Tris pH 7.5, 150 mM KCl, 1.5 mM MgCl, 1 mM DTT, 0.5% NP40, diluted to 0.2% NP40; RET detected by Western blot

In the case of “RET receptor tyrosine kinase (from UniProt P07949 29-1114)”, the binding [1] is reported as “binds” and the binding (ERBB3-EGFP) is reported as “binds”.
